Results from cells or extracts need not show a direct contact. For some assays here: The exact form of at least one protein or probe is not confirmed. For some assays here: No signal at the amounts used counts as a negative.
What was measured:
Dicer (DICER1) [1] = molecular target: Dicer (DICER1) (UniProt Q9UPY3); experiment: binding assay; conditions: protein in a lysate after overexpression, protein details: FLAG, anti-FLAG immunoprecipitated from HCT116
Dicer (DICER1) [2] = molecular target: Dicer (DICER1) (UniProt Q9UPY3); experiment: EMSA; conditions: binding reduced without Dicer; protein in a lysate after overexpression; protein details: FLAG, anti-FLAG immunoprecipitated from HCT116; variant of siRNA I (hnRNPH1)
[3] = down-regulated in Dicer IP, stated not to bind Dicer

The chains behind the UniProt entries cited, without tags or fusion partners. Where a name states a change or a piece, a line headed by the entry shows the natural chain unless it says otherwise.
UniProt Q9UPY3: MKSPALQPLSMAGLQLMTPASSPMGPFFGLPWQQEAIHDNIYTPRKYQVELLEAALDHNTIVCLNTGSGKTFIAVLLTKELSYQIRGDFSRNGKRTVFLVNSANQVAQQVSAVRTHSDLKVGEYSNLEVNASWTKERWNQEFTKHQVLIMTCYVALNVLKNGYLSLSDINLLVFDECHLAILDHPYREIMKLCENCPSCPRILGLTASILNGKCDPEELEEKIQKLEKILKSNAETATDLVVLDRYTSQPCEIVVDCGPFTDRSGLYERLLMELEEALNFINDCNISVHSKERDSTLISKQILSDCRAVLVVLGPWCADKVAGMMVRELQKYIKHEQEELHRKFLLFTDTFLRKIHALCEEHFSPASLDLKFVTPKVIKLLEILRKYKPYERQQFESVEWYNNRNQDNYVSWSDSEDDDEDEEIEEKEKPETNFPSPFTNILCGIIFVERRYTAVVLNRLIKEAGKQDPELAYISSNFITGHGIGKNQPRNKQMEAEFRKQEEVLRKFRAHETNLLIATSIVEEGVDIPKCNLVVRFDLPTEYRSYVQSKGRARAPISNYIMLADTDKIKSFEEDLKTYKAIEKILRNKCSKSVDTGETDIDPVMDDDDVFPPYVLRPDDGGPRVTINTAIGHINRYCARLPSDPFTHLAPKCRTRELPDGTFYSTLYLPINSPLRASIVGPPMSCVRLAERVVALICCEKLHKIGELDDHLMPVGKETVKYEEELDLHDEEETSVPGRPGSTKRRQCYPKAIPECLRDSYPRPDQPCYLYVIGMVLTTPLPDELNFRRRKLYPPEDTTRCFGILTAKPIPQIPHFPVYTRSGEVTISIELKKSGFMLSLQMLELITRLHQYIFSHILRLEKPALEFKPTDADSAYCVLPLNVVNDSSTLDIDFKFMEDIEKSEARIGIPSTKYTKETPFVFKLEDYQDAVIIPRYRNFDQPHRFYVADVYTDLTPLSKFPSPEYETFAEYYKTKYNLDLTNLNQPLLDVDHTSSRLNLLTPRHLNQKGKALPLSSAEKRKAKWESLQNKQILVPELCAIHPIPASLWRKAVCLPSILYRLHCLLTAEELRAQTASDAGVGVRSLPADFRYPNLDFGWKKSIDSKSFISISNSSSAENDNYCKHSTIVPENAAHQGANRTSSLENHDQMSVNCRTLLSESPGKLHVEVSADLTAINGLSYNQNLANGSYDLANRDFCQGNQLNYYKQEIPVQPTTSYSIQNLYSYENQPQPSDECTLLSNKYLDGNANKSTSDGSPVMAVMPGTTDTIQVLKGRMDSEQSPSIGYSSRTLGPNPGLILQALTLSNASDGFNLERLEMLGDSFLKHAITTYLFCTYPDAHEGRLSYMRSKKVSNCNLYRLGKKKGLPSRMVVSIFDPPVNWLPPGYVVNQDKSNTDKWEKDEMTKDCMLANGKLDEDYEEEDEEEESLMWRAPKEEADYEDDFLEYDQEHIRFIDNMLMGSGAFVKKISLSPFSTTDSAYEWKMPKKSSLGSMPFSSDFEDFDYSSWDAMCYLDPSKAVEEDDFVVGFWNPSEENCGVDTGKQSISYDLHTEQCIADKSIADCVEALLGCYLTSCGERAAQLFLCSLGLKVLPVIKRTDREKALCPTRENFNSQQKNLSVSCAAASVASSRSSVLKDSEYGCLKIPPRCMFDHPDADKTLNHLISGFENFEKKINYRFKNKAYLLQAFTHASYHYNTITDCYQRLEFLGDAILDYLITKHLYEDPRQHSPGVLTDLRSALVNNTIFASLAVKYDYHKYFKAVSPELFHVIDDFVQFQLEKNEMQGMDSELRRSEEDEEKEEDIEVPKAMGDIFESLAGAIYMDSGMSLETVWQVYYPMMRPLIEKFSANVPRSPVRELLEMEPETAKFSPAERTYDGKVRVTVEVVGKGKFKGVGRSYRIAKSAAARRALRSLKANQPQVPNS

| Sequence | binding result (Dicer (DICER1) [2]) | binding result (Dicer (DICER1) [1]; [3]) | also measured |
| --- | --- | --- | --- |
| AGGCAAGAUGCUGGCAUAGCU [hsa-miR-31] |  |  | binding result (Dicer (DICER1) [1]; enriched in Dicer IP (total, nucleus, cytoplasm)): binds |
| UGAAUCAGAAGAUGAAGUCAAC / GACUUCAUCUUCUGAUUCAAG [siRNA_C] | binds |  |  |
| UGAAUCAGAAGAUGAAGUCAACC / GACUUCAUCUUCUGAUUCAAG [siRNA_CC] | binds |  |  |
| UGUAAACAUCCCCGACUGGAAG [hsa-miR-30d] |  | no binding |  |
| UGUAAACAUCCUUGACUGGAAG [hsa-miR-30e] |  | no binding |  |
